# Measurements from paper PMC5385568.
# The chains behind the UniProt entries cited, without tags or fusion partners. Where a name states a change or a piece, a line headed by the entry shows the natural chain unless it says otherwise.
# UniProt P28023: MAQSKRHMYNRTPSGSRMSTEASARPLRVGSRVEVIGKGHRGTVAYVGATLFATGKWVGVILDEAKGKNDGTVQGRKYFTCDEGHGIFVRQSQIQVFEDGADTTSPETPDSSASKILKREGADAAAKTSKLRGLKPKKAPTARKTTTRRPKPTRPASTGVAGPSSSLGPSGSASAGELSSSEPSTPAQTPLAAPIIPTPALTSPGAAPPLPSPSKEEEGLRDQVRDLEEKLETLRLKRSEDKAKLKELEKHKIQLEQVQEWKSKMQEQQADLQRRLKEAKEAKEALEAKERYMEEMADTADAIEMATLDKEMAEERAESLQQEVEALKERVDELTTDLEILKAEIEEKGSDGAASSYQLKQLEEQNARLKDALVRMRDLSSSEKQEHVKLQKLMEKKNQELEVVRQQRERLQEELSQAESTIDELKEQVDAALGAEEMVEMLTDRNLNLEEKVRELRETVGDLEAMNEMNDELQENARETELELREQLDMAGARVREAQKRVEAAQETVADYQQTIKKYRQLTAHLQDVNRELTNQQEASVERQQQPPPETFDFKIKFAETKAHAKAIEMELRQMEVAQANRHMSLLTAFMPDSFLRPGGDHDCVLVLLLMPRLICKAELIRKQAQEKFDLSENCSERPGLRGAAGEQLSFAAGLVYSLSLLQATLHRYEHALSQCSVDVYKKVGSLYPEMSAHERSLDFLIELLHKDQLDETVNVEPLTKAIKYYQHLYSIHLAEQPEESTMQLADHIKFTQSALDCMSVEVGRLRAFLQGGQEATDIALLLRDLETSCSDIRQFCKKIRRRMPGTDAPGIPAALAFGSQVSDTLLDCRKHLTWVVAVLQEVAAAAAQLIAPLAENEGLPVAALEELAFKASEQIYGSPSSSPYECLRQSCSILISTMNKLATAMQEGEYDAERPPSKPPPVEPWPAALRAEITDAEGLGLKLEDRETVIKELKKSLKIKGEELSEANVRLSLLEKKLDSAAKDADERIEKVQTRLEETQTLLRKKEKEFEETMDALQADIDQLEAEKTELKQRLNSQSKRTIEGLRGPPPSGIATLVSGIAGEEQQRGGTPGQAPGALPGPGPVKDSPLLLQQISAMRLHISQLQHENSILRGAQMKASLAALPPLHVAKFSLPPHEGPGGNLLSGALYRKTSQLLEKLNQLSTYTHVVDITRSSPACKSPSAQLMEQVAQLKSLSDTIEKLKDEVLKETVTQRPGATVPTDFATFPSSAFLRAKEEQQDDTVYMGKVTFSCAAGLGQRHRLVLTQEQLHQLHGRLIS
# UniProt P63010: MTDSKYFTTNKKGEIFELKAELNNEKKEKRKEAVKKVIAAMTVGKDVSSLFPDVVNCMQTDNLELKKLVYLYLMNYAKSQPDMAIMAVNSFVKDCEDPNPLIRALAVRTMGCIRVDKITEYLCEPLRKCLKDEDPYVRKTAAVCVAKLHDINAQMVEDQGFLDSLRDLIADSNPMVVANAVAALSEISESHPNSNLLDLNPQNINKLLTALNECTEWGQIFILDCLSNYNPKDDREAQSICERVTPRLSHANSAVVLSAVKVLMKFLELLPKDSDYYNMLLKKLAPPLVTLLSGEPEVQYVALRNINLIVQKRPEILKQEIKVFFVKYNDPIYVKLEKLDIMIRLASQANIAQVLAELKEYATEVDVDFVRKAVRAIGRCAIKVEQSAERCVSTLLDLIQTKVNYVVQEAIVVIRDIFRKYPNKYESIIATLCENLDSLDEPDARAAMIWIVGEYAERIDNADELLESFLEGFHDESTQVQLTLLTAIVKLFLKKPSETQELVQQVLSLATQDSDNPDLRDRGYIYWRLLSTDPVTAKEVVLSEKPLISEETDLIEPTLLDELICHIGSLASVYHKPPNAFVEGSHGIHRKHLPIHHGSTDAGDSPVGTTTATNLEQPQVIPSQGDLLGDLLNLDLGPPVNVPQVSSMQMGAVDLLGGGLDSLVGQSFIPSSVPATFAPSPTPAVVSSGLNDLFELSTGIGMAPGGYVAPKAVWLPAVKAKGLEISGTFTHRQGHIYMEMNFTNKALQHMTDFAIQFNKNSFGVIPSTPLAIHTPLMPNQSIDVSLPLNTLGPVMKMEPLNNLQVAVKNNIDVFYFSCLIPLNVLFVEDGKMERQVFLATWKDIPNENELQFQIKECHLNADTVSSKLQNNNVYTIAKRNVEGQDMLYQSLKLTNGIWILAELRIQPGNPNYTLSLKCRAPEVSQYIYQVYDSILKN
# Results are given in words; binding and its absence hold for the method and conditions named. In cells and extracts the contact can be indirect. Binding calls can cover weak binding; strength is not graded here.
# Target: AviGFP-tagged p150^Glued (rat) (UniProt P28023)
# Assay: pull-down; biotinylated AviGFP-p150^Glued from HEK293T lysate held on M-280 streptavidin Dynabeads, washed with 500 mM KCl, then incubated with 0.2 mg/ml His6-AP-2β appendage domain in 20 mM HEPES pH 7.5, 300 mM KCl, 0.1% CHAPS, 2 h at 4 °C; immunoblotting; both purified
substance,measurement,value
recombinant His6-AP-2β appendage domain (from UniProt P63010) (domain or fragment),binding,binds
